Patent US8148354B2, “Use of 20(S)-protopanaxadiol in manufacture of antidepressants” (priority 2006, dated 2012)

Test system: NA Re-uptake
Assay: NA re-uptake test ([3H]-norepinephrine, corpus striatum homogenate)
Assay type: biochemical, SD rats
Settings: concentration 1 μg/ml

`CNCCC(Oc1ccc(C(F)(F)F)cc1)c1ccccc1` (stereo not shown) [Fluoxetine, reference compound] was tested, and the Inhibitory rate was 22.9%.
